Measurements taken from PMC9239148.
Results are given in words; binding and its absence hold for the method and conditions named. Some binding calls cover weakened binding; strength is not graded here.

Amino acid sequences for entries named in this document (tags omitted). Residues count along the entry.
UniProt P05121, residues 24-402: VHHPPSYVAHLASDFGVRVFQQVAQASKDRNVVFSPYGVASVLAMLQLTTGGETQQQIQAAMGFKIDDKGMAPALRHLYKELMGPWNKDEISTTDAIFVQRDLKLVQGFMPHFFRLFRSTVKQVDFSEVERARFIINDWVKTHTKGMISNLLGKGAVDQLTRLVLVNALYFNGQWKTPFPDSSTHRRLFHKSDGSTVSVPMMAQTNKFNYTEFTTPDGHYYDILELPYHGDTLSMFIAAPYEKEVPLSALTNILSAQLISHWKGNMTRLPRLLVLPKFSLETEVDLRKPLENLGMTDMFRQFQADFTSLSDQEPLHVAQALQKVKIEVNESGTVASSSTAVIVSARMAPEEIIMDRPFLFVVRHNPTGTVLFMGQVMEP
UniProt P01009, residues 25-418: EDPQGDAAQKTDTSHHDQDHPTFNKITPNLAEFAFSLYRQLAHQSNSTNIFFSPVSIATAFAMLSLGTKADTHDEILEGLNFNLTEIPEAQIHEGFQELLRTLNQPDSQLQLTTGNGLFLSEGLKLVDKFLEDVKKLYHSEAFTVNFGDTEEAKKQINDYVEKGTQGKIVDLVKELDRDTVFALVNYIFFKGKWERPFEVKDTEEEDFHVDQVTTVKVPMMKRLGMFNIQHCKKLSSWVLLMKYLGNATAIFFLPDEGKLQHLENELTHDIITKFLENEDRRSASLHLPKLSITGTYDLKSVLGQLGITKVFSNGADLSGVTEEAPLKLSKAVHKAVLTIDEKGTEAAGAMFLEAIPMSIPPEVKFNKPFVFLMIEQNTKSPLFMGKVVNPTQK
UniProt P01008, residues 33-464: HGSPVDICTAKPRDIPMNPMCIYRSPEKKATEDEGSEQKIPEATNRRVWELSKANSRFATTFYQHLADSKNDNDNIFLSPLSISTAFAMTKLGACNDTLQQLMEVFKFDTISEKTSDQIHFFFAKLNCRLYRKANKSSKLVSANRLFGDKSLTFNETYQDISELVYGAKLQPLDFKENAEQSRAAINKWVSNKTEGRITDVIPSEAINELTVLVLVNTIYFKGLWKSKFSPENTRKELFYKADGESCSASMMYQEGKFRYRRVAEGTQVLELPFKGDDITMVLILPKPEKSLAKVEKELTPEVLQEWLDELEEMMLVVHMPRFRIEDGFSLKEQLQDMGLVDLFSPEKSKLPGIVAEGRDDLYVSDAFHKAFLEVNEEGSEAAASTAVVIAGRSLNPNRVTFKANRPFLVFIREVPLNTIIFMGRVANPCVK
UniProt O15393, residues 256-492: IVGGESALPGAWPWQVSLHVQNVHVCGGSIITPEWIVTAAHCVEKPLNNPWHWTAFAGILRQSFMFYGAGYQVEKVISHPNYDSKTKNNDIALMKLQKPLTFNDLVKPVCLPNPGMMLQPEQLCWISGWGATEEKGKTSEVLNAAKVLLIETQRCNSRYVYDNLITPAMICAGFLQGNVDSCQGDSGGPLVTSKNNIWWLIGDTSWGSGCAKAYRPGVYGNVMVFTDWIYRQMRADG
UniProt P00750, residues 36-562: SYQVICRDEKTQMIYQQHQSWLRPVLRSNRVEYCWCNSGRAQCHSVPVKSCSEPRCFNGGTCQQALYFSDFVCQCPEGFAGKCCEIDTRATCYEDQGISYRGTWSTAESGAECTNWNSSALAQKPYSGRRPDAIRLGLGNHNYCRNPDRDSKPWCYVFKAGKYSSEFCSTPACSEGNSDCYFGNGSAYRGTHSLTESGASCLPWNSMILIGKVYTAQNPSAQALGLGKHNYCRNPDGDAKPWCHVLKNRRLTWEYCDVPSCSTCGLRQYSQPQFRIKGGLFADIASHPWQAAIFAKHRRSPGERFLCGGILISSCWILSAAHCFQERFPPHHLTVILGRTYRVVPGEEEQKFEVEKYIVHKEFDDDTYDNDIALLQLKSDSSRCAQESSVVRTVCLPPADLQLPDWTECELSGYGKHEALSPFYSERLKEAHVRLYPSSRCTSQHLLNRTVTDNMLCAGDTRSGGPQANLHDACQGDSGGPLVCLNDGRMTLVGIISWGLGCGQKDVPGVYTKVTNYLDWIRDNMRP

Key:
Assay in all cases: SPR; Serpin A1, C1 and E1 amine-coupled to a CM5 chip at pH 4 (5,200, 2,700 and 3,300 RU); analyte TMPRSS2 (125 nM to 7.81 nM) or tPA (1,000 nM to 1.95 nM) in 2-fold dilutions; 120 s association, 120 s dissociation, 30 uL/min; 25°C; 10 mM phosphate buffer pH 7.4, 140 mM NaCl, 0.27 mM KCl; Biacore T-200; both purified
[1] = biological target: Recombinant SERPINE1 protein (plasminogen activator inhibitor 1) (human) (UniProt P05121)
[2] = biological target: Recombinant SERPINA1 protein (alpha-1 antitrypsin) (human) (UniProt P01009)
[3] = biological target: Recombinant SERPINC1 protein (antithrombin III) (human) (UniProt P01008)

Substance	binding [1]	binding [2]	binding [3]
Active recombinant TMPRSS2 (transmembrane serine protease 2) (from UniProt O15393 256-492) (enzyme)	binds	binds	binds
Tissue plasminogen activator (from UniProt P00750 36-562) (enzyme)	binds	–	–
